We go through two sequences from publication PMC5291090.

For data set [1], the target named is T1, STAT (Aedes aegypti) (UniProt B8LFE5).
T1 sequence (looked up, limits assumed): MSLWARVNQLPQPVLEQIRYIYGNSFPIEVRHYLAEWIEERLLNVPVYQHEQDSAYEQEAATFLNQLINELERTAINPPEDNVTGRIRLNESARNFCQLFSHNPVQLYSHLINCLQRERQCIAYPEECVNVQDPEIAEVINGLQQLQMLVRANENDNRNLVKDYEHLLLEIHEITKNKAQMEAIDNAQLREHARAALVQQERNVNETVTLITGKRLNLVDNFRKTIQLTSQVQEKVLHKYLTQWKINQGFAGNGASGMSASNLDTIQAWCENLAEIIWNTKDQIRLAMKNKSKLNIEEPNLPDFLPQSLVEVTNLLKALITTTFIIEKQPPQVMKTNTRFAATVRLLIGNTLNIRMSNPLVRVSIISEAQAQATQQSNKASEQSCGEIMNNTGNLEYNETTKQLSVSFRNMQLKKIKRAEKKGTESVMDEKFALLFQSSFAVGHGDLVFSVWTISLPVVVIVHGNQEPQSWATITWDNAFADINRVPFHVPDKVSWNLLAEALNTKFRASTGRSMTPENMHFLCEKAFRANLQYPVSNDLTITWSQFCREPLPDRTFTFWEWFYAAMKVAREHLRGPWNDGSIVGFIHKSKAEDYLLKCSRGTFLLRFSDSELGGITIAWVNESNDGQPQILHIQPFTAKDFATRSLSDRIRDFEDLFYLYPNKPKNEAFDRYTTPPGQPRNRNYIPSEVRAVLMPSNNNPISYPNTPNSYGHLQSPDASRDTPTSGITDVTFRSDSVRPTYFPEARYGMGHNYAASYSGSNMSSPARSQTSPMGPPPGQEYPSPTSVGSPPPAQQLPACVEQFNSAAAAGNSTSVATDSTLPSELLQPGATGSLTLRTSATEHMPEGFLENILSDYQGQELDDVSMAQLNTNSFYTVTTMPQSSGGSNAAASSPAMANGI
Briefly: competition with a labelled probe. The settings on record: 1 mM Tris pH 7.5, 50 mM KCl, 1 mM DTT, 0.05% NP-40, 2.5% glycerol, 50 ng/uL poly(dI:dC), 20 min at room temperature, 5% polyacrylamide gel, protein in an extract, protein details: V5-His (pAc5.1-V5-His A).

The target in data set [2] is T1, STAT (Aedes aegypti). The data set can be described thus: EMSA supershift. Particulars: anti-V5 antibody; 1 mM Tris pH 7.5, 50 mM KCl, 1 mM DTT, 0.05% NP-40, 2.5% glycerol, 50 ng/uL poly(dI:dC), 20 min at room temperature, 5% polyacrylamide gel; protein in an extract; protein details: V5-His (pAc5.1-V5-His A). On the technique in general: In EMSA bound probe runs differently from free probe, usually more slowly.

Construct, isoform or probe ends are uncertain for at least one entry. Results from cells or extracts need not show a direct contact. For part of these data: A negative result means that nothing was seen under these conditions. For part of these data: At least one verdict was read from the data and is not stated in words by the source. Protein sequences can lack the tags named with them.

As for “TTGACATAACCATAATACATCCAAGCTGGTAAACGCAGACGACGATCAAC (double strand) [m1-mutant competitor]”, in the data set with STAT (Aedes aegypti) [1] (unlabeled mutant competitor), the binding result is listed as “no binding”. With “TTGACATAACCATAATACATTTCCATGAATAAACGCAGACGACGATCAAC (double strand) [m1-probe (Gambicin promoter STAT site -577 to -568)]”, the binding result in the data set with STAT (Aedes aegypti) [2] and with STAT (Aedes aegypti) [1] (unlabeled specific competitor) was “binds” each time.
